Results from patent publication US20220332835A1 (SHANGHAITECH UNIVERSITY, published 2022).
Residue numbers refer to the chain shown, from its start. Results are given in words; binding and its absence hold for the method and conditions named. A result given as binding can be weak or reduced; the word gives no strength. Values belong to the binder of their own block, whether it stands above or below them.

Key:
hCXCR2-K16A = experiment: flow cytometry, U2OS cells expressing the hCXCR2-mCherry point mutant, Alexa Fluor 488 secondary antibody
[1] = target: mcCXCR2-mCherry (macaque monkey); experiment: FACS on transfected U2OS cells

binding (hCXCR2-K16A): binds
binding [1]: binds
B1: abN48-IgG1 (antibody, V domains shown)
VH: QVQLVQSGAEVKKPGSSVKVSCKASGGTLSSYAISWVRQAPGQGPEWMGWINPNSGGTNYAQKFQGRVTMTRDTSISTAYMELSRLRPDDTAVYYCASGYCSSTSCYDYWGQGTLVTVSS
VL: QAVLTQPSSLSASPGASVSLTCTLRSGINVGAYRIYWYQQKPGSPPQFLLRYKSDSDKQQGSGVPSRFSGSRDASANAGILLISGLRSEDEADYYCAIWHSSAWVFGGGTQLTVLG
notes: also called full-length abN48

binding [1]: binds
B2: abN48-2-IgG1 (antibody, V domains shown)
VH: B1 VH with S103R, S105R
VL: B1 VL
notes: Full-length human IgG1, lambda light chain; also called ab48-2-IgG1; abN48-2-IgG2 (as misprinted)
